These molecules were tested on murine TCRβ constant region (assay: mTCRβ expression detection on Jurkat-NFAT-Luc cells). Conditions: TCR mutant transduced Jurkat-NFAT-Luc cells.
Assay type: cell-based

| Molecule | mTCRβ % |
| --- | --- |
| β96T-S: B8.2.4 TCR point mutant, Vβ-CDR3 96T to S; CDR3β ASSQSVPPQH (protein) TCR alpha: AQKITQTQPGMFVQEKEAVTLDCTYDTSDPSYGLFWYKQPSSGEMIFLIYQGSYDQQNATEGRYSLNFQKARKSANLVISASQLGDSAMYFCAMRERTGTASKLTFGTGTRLQVTLDIQNPEPAVYQLKDPRSQDSTLCLFTDFDSQINVPKTMESGTFITDKTVLDMKAMDSKSNGAIAWSNQTSFTCQDIFKETNATYPSSDVPCDATLTEKSFETDMNLNFQNLSVMGLRILLLKVAGFNLLMTLRLWSS TCR beta: DVKVTQSSRYLVKRTGEKVFLECVQDMDHENMFWYRQDPGLGLRLIYFSYDVKMKEKGDIPEGYSVSREKKERFSLILESASTNQTSMYLCASSQSVPPQHFGDGTRLSILEDLRNVTPPKVSLFEPSKAEIANKQKATLVCLARGFFPDHVELSWWVNGKEVHSGVSTDPQAYKESNYSYCLSSRLRVSATFWHNPRNHFRCQVQFHGLSEEDKWPEGSPKPVTQNISAEAWGRADCGITSASYQQGVLSATILYEILLGKATLYAVLVSTLVVMAMVKRKNS | 61.9% |
| β96T-Y: B8.2.4 TCR point mutant, Vβ-CDR3 96T to Y (protein) TCR alpha: AQKITQTQPGMFVQEKEAVTLDCTYDTSDPSYGLFWYKQPSSGEMIFLIYQGSYDQQNATEGRYSLNFQKARKSANLVISASQLGDSAMYFCAMRERTGTASKLTFGTGTRLQVTLDIQNPEPAVYQLKDPRSQDSTLCLFTDFDSQINVPKTMESGTFITDKTVLDMKAMDSKSNGAIAWSNQTSFTCQDIFKETNATYPSSDVPCDATLTEKSFETDMNLNFQNLSVMGLRILLLKVAGFNLLMTLRLWSS TCR beta: DVKVTQSSRYLVKRTGEKVFLECVQDMDHENMFWYRQDPGLGLRLIYFSYDVKMKEKGDIPEGYSVSREKKERFSLILESASTNQTSMYLCASSQYVPPQHFGDGTRLSILEDLRNVTPPKVSLFEPSKAEIANKQKATLVCLARGFFPDHVELSWWVNGKEVHSGVSTDPQAYKESNYSYCLSSRLRVSATFWHNPRNHFRCQVQFHGLSEEDKWPEGSPKPVTQNISAEAWGRADCGITSASYQQGVLSATILYEILLGKATLYAVLVSTLVVMAMVKRKNS | 69.9% |
| β96T-W: B8.2.4 TCR point mutant, Vβ-CDR3 96T to W; CDR3β ASSQWVPPQH (protein) TCR alpha: AQKITQTQPGMFVQEKEAVTLDCTYDTSDPSYGLFWYKQPSSGEMIFLIYQGSYDQQNATEGRYSLNFQKARKSANLVISASQLGDSAMYFCAMRERTGTASKLTFGTGTRLQVTLDIQNPEPAVYQLKDPRSQDSTLCLFTDFDSQINVPKTMESGTFITDKTVLDMKAMDSKSNGAIAWSNQTSFTCQDIFKETNATYPSSDVPCDATLTEKSFETDMNLNFQNLSVMGLRILLLKVAGFNLLMTLRLWSS TCR beta: DVKVTQSSRYLVKRTGEKVFLECVQDMDHENMFWYRQDPGLGLRLIYFSYDVKMKEKGDIPEGYSVSREKKERFSLILESASTNQTSMYLCASSQWVPPQHFGDGTRLSILEDLRNVTPPKVSLFEPSKAEIANKQKATLVCLARGFFPDHVELSWWVNGKEVHSGVSTDPQAYKESNYSYCLSSRLRVSATFWHNPRNHFRCQVQFHGLSEEDKWPEGSPKPVTQNISAEAWGRADCGITSASYQQGVLSATILYEILLGKATLYAVLVSTLVVMAMVKRKNS | 67.4% |
| β96T-V: B8.2.4 TCR point mutant, Vβ-CDR3 96T to V; CDR3β ASSQVVPPQH (protein) TCR alpha: AQKITQTQPGMFVQEKEAVTLDCTYDTSDPSYGLFWYKQPSSGEMIFLIYQGSYDQQNATEGRYSLNFQKARKSANLVISASQLGDSAMYFCAMRERTGTASKLTFGTGTRLQVTLDIQNPEPAVYQLKDPRSQDSTLCLFTDFDSQINVPKTMESGTFITDKTVLDMKAMDSKSNGAIAWSNQTSFTCQDIFKETNATYPSSDVPCDATLTEKSFETDMNLNFQNLSVMGLRILLLKVAGFNLLMTLRLWSS TCR beta: DVKVTQSSRYLVKRTGEKVFLECVQDMDHENMFWYRQDPGLGLRLIYFSYDVKMKEKGDIPEGYSVSREKKERFSLILESASTNQTSMYLCASSQVVPPQHFGDGTRLSILEDLRNVTPPKVSLFEPSKAEIANKQKATLVCLARGFFPDHVELSWWVNGKEVHSGVSTDPQAYKESNYSYCLSSRLRVSATFWHNPRNHFRCQVQFHGLSEEDKWPEGSPKPVTQNISAEAWGRADCGITSASYQQGVLSATILYEILLGKATLYAVLVSTLVVMAMVKRKNS | 54.5% |
